Measured values published in paper doi:10.1101/695700.
Numbering of substitutions follows the chain as printed. Names and notes keep the numbering of the source. Read-outs that look alike come from different tables or passages of the source. No constants are given. Whether binding was seen depends on the method and setting. Some binding calls cover weakened binding; strength is not graded here. One block for each binder: values may come before it.

Columns and labels:
[1] = biological target: T1, recombinant HC1 (rHC1), wild type; heavy chain 1 of inter-α-inhibitor (human) (UniProt P19827); experiment: SAXS
T1 sequence: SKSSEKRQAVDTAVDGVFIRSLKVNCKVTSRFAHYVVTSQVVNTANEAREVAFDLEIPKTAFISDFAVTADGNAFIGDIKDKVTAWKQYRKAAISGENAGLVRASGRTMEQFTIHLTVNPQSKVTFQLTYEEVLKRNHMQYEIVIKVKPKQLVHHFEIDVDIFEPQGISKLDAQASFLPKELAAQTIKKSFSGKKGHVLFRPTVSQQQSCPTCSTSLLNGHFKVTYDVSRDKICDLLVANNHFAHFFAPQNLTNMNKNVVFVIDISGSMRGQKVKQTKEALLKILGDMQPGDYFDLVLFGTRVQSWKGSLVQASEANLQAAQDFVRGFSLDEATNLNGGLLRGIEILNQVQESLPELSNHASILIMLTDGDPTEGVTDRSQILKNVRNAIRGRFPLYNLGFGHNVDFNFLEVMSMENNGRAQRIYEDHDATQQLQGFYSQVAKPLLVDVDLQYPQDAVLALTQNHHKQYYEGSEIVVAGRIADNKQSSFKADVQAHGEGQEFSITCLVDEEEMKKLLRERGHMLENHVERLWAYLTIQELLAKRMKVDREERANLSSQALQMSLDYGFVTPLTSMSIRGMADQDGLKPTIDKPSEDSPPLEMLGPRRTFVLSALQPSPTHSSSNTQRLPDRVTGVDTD

[2] = biological target: T1, recombinant HC1 (rHC1), wild type; heavy chain 1 of inter-α-inhibitor (human); experiment: SAXS; remark: listed apart in the source
[3] = biological target: T1, recombinant HC1 (rHC1), wild type; heavy chain 1 of inter-α-inhibitor (human); experiment: SAXS; remark: listed apart in the source
[4] = biological target: T1, recombinant HC1 (rHC1), wild type; heavy chain 1 of inter-α-inhibitor (human); experiment: SAXS; remark: listed apart in the source
[5] = biological target: T1, recombinant HC1 (rHC1), wild type; heavy chain 1 of inter-α-inhibitor (human); experiment: SEC
[6] = biological target: T2, rHC1 D298A (MIDAS site mutant) (human) (UniProt P19827); experiment: SAXS
T2 sequence: T1 sequence with D264A

[7] = biological target: T2, rHC1 D298A (MIDAS site mutant) (human); experiment: SAXS; remark: listed apart in the source

binding [1]: binds weakly
binding [2]: binds weakly
binding [3]: no binding (condition: 5mM CaCl2)
binding [4]: no binding (condition: 2.5mM EDTA)
binding [5]: binds weakly
B1: recombinant HC1 (rHC1), wild type; heavy chain 1 of inter-α-inhibitor (protein, UniProt P19827 35-672)
chain: T1 sequence

binding [6]: no binding
binding [7]: no binding
B2: rHC1 D298A (MIDAS site mutant) (protein, UniProt P19827 35-672)
chain: T1 sequence with D264A
